Measured values taken from publication PMC6817842.
No constants are given. Whether binding was seen depends on the method and setting. Binding seen in cells or lysates may run through a third protein. Some results given as binding are weak or reduced against the parent protein; the word gives no strength.

Amino acid sequences for entries named in this document (tags omitted).
UniProt P42582: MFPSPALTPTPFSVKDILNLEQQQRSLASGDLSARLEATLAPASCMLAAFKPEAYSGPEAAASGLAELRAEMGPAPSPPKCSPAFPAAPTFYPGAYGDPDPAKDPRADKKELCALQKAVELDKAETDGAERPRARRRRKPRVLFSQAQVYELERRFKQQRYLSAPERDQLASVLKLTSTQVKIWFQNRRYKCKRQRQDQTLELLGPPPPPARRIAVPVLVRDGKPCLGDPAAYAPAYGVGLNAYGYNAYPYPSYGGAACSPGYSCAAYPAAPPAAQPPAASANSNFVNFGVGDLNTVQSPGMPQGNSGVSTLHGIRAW
UniProt P30051: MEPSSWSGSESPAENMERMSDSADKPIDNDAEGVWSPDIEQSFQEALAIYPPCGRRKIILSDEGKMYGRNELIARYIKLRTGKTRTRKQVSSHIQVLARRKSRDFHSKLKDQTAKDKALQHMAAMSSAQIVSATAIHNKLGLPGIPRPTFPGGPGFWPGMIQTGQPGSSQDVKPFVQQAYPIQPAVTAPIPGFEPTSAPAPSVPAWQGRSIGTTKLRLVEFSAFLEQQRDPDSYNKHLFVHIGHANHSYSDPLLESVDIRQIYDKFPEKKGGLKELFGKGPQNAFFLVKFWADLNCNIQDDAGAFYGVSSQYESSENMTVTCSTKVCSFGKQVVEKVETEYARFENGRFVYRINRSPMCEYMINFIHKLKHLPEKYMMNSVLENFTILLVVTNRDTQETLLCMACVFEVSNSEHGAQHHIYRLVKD
UniProt Q8CFN5: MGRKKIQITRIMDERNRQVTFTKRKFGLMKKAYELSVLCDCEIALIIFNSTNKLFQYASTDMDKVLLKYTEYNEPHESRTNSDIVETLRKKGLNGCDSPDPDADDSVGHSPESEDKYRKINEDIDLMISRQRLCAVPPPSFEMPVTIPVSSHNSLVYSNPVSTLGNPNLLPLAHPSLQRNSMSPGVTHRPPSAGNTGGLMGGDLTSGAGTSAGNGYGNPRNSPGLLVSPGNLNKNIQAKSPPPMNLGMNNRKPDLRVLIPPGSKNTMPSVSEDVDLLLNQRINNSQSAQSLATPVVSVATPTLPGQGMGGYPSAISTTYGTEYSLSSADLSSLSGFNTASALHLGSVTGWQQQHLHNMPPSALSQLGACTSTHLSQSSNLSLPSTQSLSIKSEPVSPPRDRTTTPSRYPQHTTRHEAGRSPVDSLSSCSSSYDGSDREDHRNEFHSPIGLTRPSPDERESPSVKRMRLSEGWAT

Experiments:
[1] = molecular target: NKX2-5^fb (NKX2-5 with C-terminal FLAG and biotin acceptor peptide, knock-in allele) (mouse) (UniProt P42582); assay: pull-down; biotinylated knock-in TF captured on M280 streptavidin Dynabeads from 150 µg embryonic heart lysate in RIPA buffer, 4 h at 4 °C; beads washed with cold PBS; partners detected by capillary electrophoresis immunoassay (ProteinSimple Wes); called CoIP in the methods
[2] = molecular target: TEAD1^fb (TEAD1 with C-terminal FLAG and biotin acceptor peptide, knock-in allele) (mouse) (UniProt P30051); assay: as above

binding [1]	binding [2]	Substance
binds	binds	MEF2C (endogenous) (from UniProt Q8CFN5 1-474)
	binds	NKX2-5 (endogenous) (from UniProt P42582 1-318)
